The text below walks through data of patent publication US20070148201A1.

Chains of the proteins cited; added tags and fusions are not shown. Lines headed by an entry give the natural chain unless they say otherwise; changes in a name come on top. Residues count along the entry.
UniProt Q08722: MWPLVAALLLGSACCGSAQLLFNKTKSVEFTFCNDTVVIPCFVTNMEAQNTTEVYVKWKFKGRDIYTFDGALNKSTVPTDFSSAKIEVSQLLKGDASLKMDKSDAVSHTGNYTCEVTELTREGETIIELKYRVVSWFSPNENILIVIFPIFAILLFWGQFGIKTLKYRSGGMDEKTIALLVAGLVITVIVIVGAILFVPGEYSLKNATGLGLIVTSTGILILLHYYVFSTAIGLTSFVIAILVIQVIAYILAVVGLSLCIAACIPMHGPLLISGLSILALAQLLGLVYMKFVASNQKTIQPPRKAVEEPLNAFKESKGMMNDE
UniProt P29965, residues 47-261: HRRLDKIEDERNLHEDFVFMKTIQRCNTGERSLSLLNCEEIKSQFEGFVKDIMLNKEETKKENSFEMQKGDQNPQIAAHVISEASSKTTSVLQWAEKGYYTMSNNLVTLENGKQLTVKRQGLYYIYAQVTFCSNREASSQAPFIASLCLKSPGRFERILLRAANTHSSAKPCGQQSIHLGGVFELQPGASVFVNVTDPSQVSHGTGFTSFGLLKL
UniProt P02791: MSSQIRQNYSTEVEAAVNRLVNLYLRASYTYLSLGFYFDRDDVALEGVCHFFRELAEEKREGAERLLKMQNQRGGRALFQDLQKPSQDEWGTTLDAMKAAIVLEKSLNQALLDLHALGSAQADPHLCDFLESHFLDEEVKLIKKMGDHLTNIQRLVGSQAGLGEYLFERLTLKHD
UniProt Q8MIP0: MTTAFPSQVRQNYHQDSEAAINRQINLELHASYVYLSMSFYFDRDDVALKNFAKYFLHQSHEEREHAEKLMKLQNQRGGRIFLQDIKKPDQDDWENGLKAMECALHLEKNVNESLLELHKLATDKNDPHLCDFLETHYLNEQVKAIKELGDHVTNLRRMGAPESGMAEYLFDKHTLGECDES

Assay [1] deals with extracellular domain of human CD47 (amino acids 1 to 119 of the mature protein, Cys15 to Ala) with Strep-tag II (human) (UniProt Q08722). As to the kind of experiment: ELISA: CD47 coated on the plate, BBP mutein titrated 0-2000 nM, detected with anti-T7 antibody-HRP, fluorescence (Example 8). Background: ELISA stands for enzyme-linked immunosorbent assay.
The target is the same in assay [2]. As to the kind of experiment: phagemid ELISA screening, BBP mutein displayed on phagemids, CD47 immobilized on plate, anti-M13 antibody-HRP detection.
Assay [3] shares this target. As to the kind of experiment: phage-ELISA screening, mutein displayed on phagemids (pIII fusion), CD47 coated on plate, anti-M13-HRP detection.
For assay [4] the target is unchanged. As to the kind of experiment: ELISA, CD47 coated on plate (FIG. 6).
For assay [5], the target named is extracellular domain of human CD154 (human) (UniProt P29965). As to the kind of experiment: colony screening, mutein as Strep-tag II/albumin-binding domain fusion held on HSA membrane, 100 nM digoxigenin-conjugated CD154, anti-digoxigenin Fab-AP detection.
The target is the same in assay [6]. As to the kind of experiment: ELISA: CD154 coated on the plate, BBP mutein titrated 0-2000 nM, detected with anti-Strep-tag II antibody-HRP, fluorescence (Example 17).
The target is the same in assay [7]. As to the kind of experiment: ELISA, CD154 coated on plate (FIG. 11).
Assay [8] deals with T1, type I horse ferritin (horse) (UniProt P02791+Q8MIP0). As to the kind of experiment: ELISA, ferritin coated on plate (FIG. 8).
Assay [9] has as its target T1, type I horse ferritin (horse). As to the kind of experiment: secondary high-throughput ELISA screening, crude cell extract, ferritin coated on plate.
Assay [10] shares this target. As to the kind of experiment: ELISA: ferritin coated on the plate, BBP mutein titrated 0-1000 nM, detected with anti-T7 antibody-HRP, fluorescence (Example 12).

No constants are given. Whether binding was seen depends on the method and setting. Some results given as binding are weak or reduced against the parent protein; the word gives no strength.

B1: BBP mutein CD47-G6 (designed binder)
chain: DVYHDGACPEVKPVDNFDWSQYHGKWWEVAKYPNRREKFGKCGWAEYTPEGKSVKVSNYHVIRWGERFIEGTAYPVGDSKIGKIYHSLTLPGYTKENVFNVLSTDNKNYIIGYYCKYLERLKGHADFVWVLSRSMVLTGEAKTAVENYLIGSPVVDSQKLVYSDFSEAACKVNN
With B1, the binding result in assay [1], in assay [2], in [3] and in assay [4] was “binds” each time.

B2: BBP mutein CD154-13-10-4 (designed binder)
chain: DVYHDGACPEVKPVDNFDWSQYHGKWWEVAKYPNSHETGGKCGWAEYTPEGKSVKVSNYHVITPHERFIEGTAYPVGDSKIGKIYHSLTWIGTTKENVFNVLSTDNKNYIIGYYCSYSEAGKGHQDFVWVLSRSMVLTGEAKTAVENYLIGSPVVDSQKLVYSDFSEAACKVNN
As to B2, the binding entry in assay [5], in assay [6] and in [7] was “binds” throughout.

B3: BBP mutein Fer-N21 (designed binder)
chain: DVYHDGACPEVKPVDNFDWSQYHGKWWEVAKYPSNRGSKGKCGWAEYTPEGKSVKVSRYDVIPRLEAFMEGTAYPVGDSKIGKIYHSRTSKGKTKKTVFNVLSTDNKNYIIGYSCIYNERYKGHYDHVWVLSRSMVLTGEAKTAVENYLIGSPVVDSQKLVYSDFSEAACKVNN
With B3, the binding entry in assay [8], in [9] and in [10] was “binds” each time.

B4: BBP mutein Fer-D24 (designed binder)
chain: DVYHDGACPEVKPVDNFDWSQYHGKWWEVAKYPSKKGKQGKCGWAEYTPEGKSVKVSRYDVIPCLESFMEGTAYPVGDSKIGKIYHSRTKPGRTKKTVFNVPSTDNKNYIIGYSCVYPEGRKGHRDHVWVLSRSMVLTGEAKTAVENYLIGSPVVDSQKLVYSDFSEAACKVNN
On to B4, for which, in [9], the binding result is reported as “binds”.

B5: BBP mutein Fer-I21 (designed binder)
chain: DVYHDGACPEVKPVDNFDWSQYHGKWWEVAKYPNQKEKWGKCGWAEYTPEGKSVKVSNYHVIKRPERFIEGTAYPVGDSKIGKIYHSLTRLGKTKENVFNVLSTDNKNYIIGYYCLYPEGWKGHKDFVWVLSRSMVLTGEAKTAVENYLIGSPVVDSQKLVYSDFSEAACKVNN
With B5, the binding result in assay [8], in assay [9] and in assay [10] was “binds” in each case.

B6: BBP mutein CD154-13-10-1 (designed binder)
chain: DVYHDGACPEVKPVDNFDWSQYHGKWWEVAKYPNQIEQGGKCGWAEYTPEGKSVKVSNYHVIYASEDFIEGTAYPVGDSKIGKIYHSLTSSGVTKENVFNVLSTDNKNYIIGYYCGYREAPKGHMDFVWVLSRSMVLTGEAKTAVENYLIGSPVVDSQKLVYSDFSEAACKVNN
Take B6: the binding entry in [5], in assay [6] and in assay [7] was “binds” throughout.

B7: BBP mutein Fer-O20 (designed binder)
chain: DVYHDGACPEVKPVDNFDWSQYHGKWWEVAKCPSGKGRAGKCGWAEFTPEGKSVKVSRYDVIPAPELFMEGTAYPVGDPKIGKIYHSRTNKGLTKKTVFNVLSTDNKNYIIGYSCKYGEDQKGHKDHVWVLSRSMVLTGEAKTAVENYLIGSPVVDSQKLVYSDFSEAACKVNN
As to B7, the binding result in [8], in assay [9] and in assay [10] was “binds” throughout.

B8: BBP mutein Fer-P4 (designed binder)
chain: DVYHDGACPEVKPVDNFDWSQYHGKWWEVAKYPSKGGEKGKCGWAEYTPEGKSVKVSRYDVILSSEPFMEGTAYPVGDSKIGKIYHSRTKKGETKKTVFNVLSTDNKNYIIGYSCGYCECRKGHADHVWVLSRSMVLTGEAKTAVENYLIGSPVVDSQKLVYSDFSEAACKVNN
For B8, the binding result in assay [8], in assay [9] and in assay [10] was “binds” throughout.

B9: BBP mutein CD154-13-10-2 (designed binder)
chain: DVYHDGACPEVKPVDNFDWSQYHGKWWEVAKYPNGTEESGKCGWAEYTPEGKSVKVSNYHVITQGEKFIEGTAYPVGDSKIGKIYHSLTRPGLTKENVFNVLSTDNKNYIIGYYCDYMECKKGHEDFVWVLSRSMVLTGEAKTAVENYLIGSPVVDSQKLVYSDFSEAACKVNN
With B9, the binding entry in [5] was “binds”.

B10: BBP mutein Fer-N22 (designed binder)
chain: DVYHDGACPEVKPVDNFDWSQYHGKWWEVAKYPNGGESPGKCGWAEYTPEGKSVKVSNYHVIKKRERFIEGTAYPVGDSKIGKICHSLTWSGLTKENVFNVLSTDNKNYIIGYYCKYKERKKGHGDFVWVLSRSMVLTGEAKTAVENYLIGSPVVDSQKLVYSDFSEAACKVNN
For B10, the binding entry in [8], in assay [9] and in assay [10] was “binds” throughout.
